Library screen at single concentrations

Amino acid sequences for entries named in this document (tags omitted). Residues count along the entry.
UniProt Q8IDJ8, 1-583: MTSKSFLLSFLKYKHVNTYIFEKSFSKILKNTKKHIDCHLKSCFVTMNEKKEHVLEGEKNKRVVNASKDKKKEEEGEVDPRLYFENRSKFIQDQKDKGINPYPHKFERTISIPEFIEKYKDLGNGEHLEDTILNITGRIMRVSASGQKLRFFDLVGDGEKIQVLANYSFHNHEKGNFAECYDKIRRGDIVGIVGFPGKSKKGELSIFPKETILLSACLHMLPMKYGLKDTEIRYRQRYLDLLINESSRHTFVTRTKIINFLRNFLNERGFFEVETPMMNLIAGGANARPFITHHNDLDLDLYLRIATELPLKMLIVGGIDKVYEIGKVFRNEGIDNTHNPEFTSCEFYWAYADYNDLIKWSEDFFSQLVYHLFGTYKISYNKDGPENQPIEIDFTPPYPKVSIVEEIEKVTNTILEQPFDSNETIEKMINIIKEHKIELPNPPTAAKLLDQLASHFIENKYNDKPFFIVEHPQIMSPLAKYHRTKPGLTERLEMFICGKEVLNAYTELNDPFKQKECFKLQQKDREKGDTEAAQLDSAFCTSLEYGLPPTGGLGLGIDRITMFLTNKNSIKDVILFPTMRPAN

The values are deposited in ChEMBL (CHEMBL3988442, “University of Dundee, Small-Polar-MMV Screening Library” (2021)).

A: 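Whole-parasite assay of Trypanosoma brucei over 72 hours; the read-out is not stated. Compounds at 30 µM. Direction is inferred from retests: higher values go with stronger inhibition. Values scatter widely below zero; nearly all retest evidence comes from the higher of the two concentrations used. Size under these conditions: about 64,000 compounds, about 940 of them at 50% or above in at least one test.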
B: 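Enzyme assay of the cytosolic lysyl-tRNA synthetase in 384-well plates, read by luminescence. Target: Lysine-tRNA ligase, Plasmodium falciparum 3D7 (UniProt Q8IDJ8). Concentration: 30 µM. Higher reads as stronger inhibition, judged from the few compounds that gave an IC50. Size under these conditions: about 69,000 compounds, about 49 of them at 50% or above in at least one test.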

Results are given as percent effect.
The record does not define 0% and 100%; most values in the screen are far below 50% and negative numbers occur (in some assays of this library far below -100).
Compounds were drawn at random from those tested, without regard to their results.
A dash means the value is not listed here; it may have been measured.

SMILES	A	B
CC(N1CCN(C(=O)NCc2cccc(C#N)c2)CC1)C(F)(F)F (stereo unspecified)	-29.9%	3.136%
COc1ccc(Cl)cc1CCNC(=O)N(C)CC1CCOC1 (stereo unspecified)	-3.439%	-1.888%
CSCC1CCCN1CCc1ccncc1 (stereo unspecified)	-74.39%	-4.879%
O=C(CSC1=NS(=O)(=O)c2cc(F)ccc2N1)c1ccccc1	3.243%	6.408%
Cc1cccc(NC(=O)N2CCOCC(CN(C)C)C2)c1C (stereo unspecified)	-26.46%	3.679%
CNS(=O)(=O)c1cccc(CNC(=O)c2c(C)oc(C)c2C)c1	4.137%	0.1452%
CCN1Cc2cc(OC)ccc2N(CC(C)(C)O)CCC1=O	-27.5%	2.202%
Cc1ccnc(NCC2(N(C)C)CCOCC2)n1	-14.31%	5.942%
Cc1c(F)cccc1S(=O)(=O)Nc1noc(C(C)C)n1	-4.84%	4.429%
Cc1cc(C[C@@H]2CCC[C@H]2NCc2cc(F)ccc2F)on1	-	1.949%
COCCn1ccc2ccc(C(=O)N3CCN(C(C)=O)CC3)cc21	-4.397%	2.792%
Cc1noc(CNC(=O)C2CSCCC(=O)N2)n1 (stereo unspecified)	-34.52%	-0.1852%
O=C(CCc1ccc(F)cc1)NCc1ccnc(NC2CC2)c1	11.6%	0.5891%
Cc1ccc(CN2CCC3(CC2)CCN(C(=O)c2cccnc2)C3)o1	-	4.37%
Cc1nn(C)c(N(C)C)c1CNC(C)c1cccnc1 (stereo unspecified)	-26.59%	2.147%
Cc1noc(C)c1CNC(=O)Nc1ccc(N2CCOC(C)C2)cc1 (stereo unspecified)	-13.63%	-0.8965%
C[C@H]1C[C@@H]2CCN(Cc3nccs3)C[C@H]2O1	-	1.741%
COc1ccccc1C(=O)N1CCCC1Cn1cc(C)cn1 (stereo unspecified)	-47.3%	8.405%
CCCc1nc(N2CCCN(c3ncccn3)CC2)c2cnn(C)c2n1	-12.92%	-0.6845%
O=C(c1cnc2c(c1)CCC2)N1CCCC(CO)(CC2CC2)C1 (stereo unspecified)	-29.6%	2.599%
Cn1nnc2c1C(COCc1ccccn1)CN(Cc1ccoc1)C2.O=C(O)C(F)(F)F.O=C(O)C(F)(F)F (stereo unspecified)	24.51%	-
c1csc(-c2nc(CN3CCOC(Cn4cncn4)C3)cs2)c1 (stereo unspecified)	-10.88%	1.436%
COC[C@@H]1CC[C@H]2[C@H](CCN2S(=O)(=O)c2ccc(OC)cc2)O1	-	3.966%
CC(=O)N1CCCN(C(=O)NCc2cc[nH]n2)CC1	-10.95%	3.447%
Cc1cc(=O)n(CCNS(=O)(=O)c2ccc(F)c(Cl)c2)cn1	-15.39%	0.549%
CCc1nnc2n1CCN(Cc1nnc(-c3occc3C)o1)C2	10.38%	0.7579%
CN(C)c1cncc(C2CCN(CCO)CC2)n1	5.884%	3.422%
CN1CCC2(C=C(C(=O)N3CCCC3)c3ccccc32)CC1	-	3.445%
CN(C)C1CCN(C(=O)c2cc(-c3ccn(C)n3)n3ccccc23)CC1.O=C(O)C(F)(F)F	-36.97%	-
COCCC(=O)N1C[C@H]2CN(Cc3cccc(C)c3)C(=O)[C@H]2C1	-	1.656%
O=c1c(NCCOCCO)c(N2CCN(c3ccccc3)CC2)c1=O	-14.36%	6.63%
CNC(=O)CCc1cc(C)nc(C2CCN(c3ccccc3)CC2)c1	1.451%	0.1139%
COc1ccccc1CN(CC1CCCO1)C(=O)c1scnc1C (stereo unspecified)	12.82%	2.831%
CCOc1ccc(NCc2cnc(N3CCN(C)CC3)nc2)cn1	-1.344%	7.619%
c1cc(CNc2cnc(C3CCCN3)cn2)ccn1 (stereo unspecified)	-	2.938%
c1csc(-c2nc(CN3CCOC(Cn4cccn4)C3)co2)c1 (stereo unspecified)	3.743%	5.948%
CC(C)=CCNC1CCCN(c2ccc(C)nn2)C1 (stereo unspecified)	-3.112%	0.1889%
Cn1cc(C2CCCN2C(=O)Cn2c(=O)oc3ccccc32)cn1 (stereo unspecified)	-22.83%	3.11%
Cc1csc(C2CCCCN2C(=O)c2c[nH]c(C)n2)n1 (stereo unspecified)	-	-1.508%
c1cnc(N2CCO[C@H]3[C@H](OCCN4CCCC4)CC[C@@H]32)nc1	-	1.728%
COc1cc(C(=O)Nc2nc(C)no2)ccc1OC(F)F	-	0.5393%
COc1cc(COCC2CCN(Cc3ccccn3)CC2)cc(OC)c1	-	5.191%
Cn1ccc2c(C(=O)NCCCS(C)(=O)=O)cccc21	-12.05%	2.703%
Cc1cccc(N2CCc3ncc(CNS(C)(=O)=O)n3CC2)n1	-	1.644%
CSc1ccc(C(CN)N2CCc3sccc3C2)cc1 (stereo unspecified)	-3.703%	3.912%
Cc1nn(C)cc1-c1cc(C(=O)N2CCc3ncc(Cl)cc3C2)no1	-15.9%	0.5407%
CC(C)c1cnc(CN(C)C2CCN(CCCc3cnn(C)c3)C2)o1 (stereo unspecified)	-13.73%	-1.281%
CCCc1noc(CN2CCC(NC(=O)c3ccc(C)s3)CC2)n1	-17.03%	2.992%
Cc1cncc(C2CCCN2CCO)n1 (stereo unspecified)	-	0.9153%
CCOc1cccc2c1OCC(C(=O)NS(=O)(=O)c1cccs1)=C2	-4.893%	1.226%
N#Cc1ccc(Cl)cc1NCC1CCOC1 (stereo unspecified)	9.632%	3.772%
Cc1noc(C(C)C)c1C(=O)NCCCN1CCCCCC1=O	-	-1.369%
CC(C)c1nc(C2CCCN2C(=O)CCn2cncn2)no1 (stereo unspecified)	-	-0.4979%
CCCn1ncc(C(=O)N2CCN([C@H]3CCCC[C@@H]3O)CC2)c1C	-97.2%	-2.663%
O=C(CSCC1CC1)N1CCC2(CCCN(C3CCOCC3)C2=O)C1 (stereo unspecified)	-33.25%	1.159%
COc1ccccc1C(=O)N1Cc2cc(C)ccc2OCC1CN(C)C.Cl (stereo unspecified)	-27.12%	-
O=C(OC1CCC1)c1ncccc1C(F)(F)F	-12.58%	3.367%
CCN(CCn1c(=O)oc2ccccc21)CC1CCOCC1	-10.52%	4.492%
CCc1nc2n(n1)CC(NCC(=O)Nc1ccc(Cl)cn1)CC2 (stereo unspecified)	-32.78%	12.05%
CC(C)CN1C(=O)CC[C@H]2CN(Cc3ncc[nH]3)CC[C@H]21	-	2.429%
O=S1(=O)NC(c2ccnc(N3CCCC3)n2)=Nc2ccccc21	5.201%	1.381%
O=C1CCC(=O)N1CCN1CCOC(c2ccsc2)C1 (stereo unspecified)	-81.4%	1.695%
[H][C@]12CC[C@]([H])(CN(C(=O)C3CCC3)C1)N(C(=O)c1cccc(C#N)c1)C2	-26.03%	-
CSc1ncnc(NCc2ccco2)c1C#N	-16.56%	4.164%
CN(CC1CC1)C(=O)CN1CCCC1c1cnn(C)c1 (stereo unspecified)	-28.79%	1.295%
COc1cccc(NC(=O)NCC(O)c2ccc(F)cc2F)c1 (stereo unspecified)	-8.479%	3.444%
Cc1nc2c(NC(CC(C)(C)C)c3cccnc3)ncnc2o1 (stereo unspecified)	-	-0.8661%

The first 6 entries again:

{"smiles": "CC(N1CCN(C(=O)NCc2cccc(C#N)c2)CC1)C(F)(F)F", "stereo": "stereo unspecified", "A": -29.9, "B": 3.136}
{"smiles": "COc1ccc(Cl)cc1CCNC(=O)N(C)CC1CCOC1", "stereo": "stereo unspecified", "A": -3.439, "B": -1.888}
{"smiles": "CSCC1CCCN1CCc1ccncc1", "stereo": "stereo unspecified", "A": -74.39, "B": -4.879}
{"smiles": "O=C(CSC1=NS(=O)(=O)c2cc(F)ccc2N1)c1ccccc1", "A": 3.243, "B": 6.408}
{"smiles": "Cc1cccc(NC(=O)N2CCOCC(CN(C)C)C2)c1C", "stereo": "stereo unspecified", "A": -26.46, "B": 3.679}
{"smiles": "CNS(=O)(=O)c1cccc(CNC(=O)c2c(C)oc(C)c2C)c1", "A": 4.137, "B": 0.1452}